Article PMC6526552
The exact form of at least one protein or probe is not confirmed. For part of these data: No signal at the amounts used counts as a negative. For part of these data: Weaker means in comparison with the reference protein, sequence or condition of that experiment.

The chains behind the UniProt entries cited, without tags or fusion partners. Residues count along the entry.
UniProt P02649, 19-169: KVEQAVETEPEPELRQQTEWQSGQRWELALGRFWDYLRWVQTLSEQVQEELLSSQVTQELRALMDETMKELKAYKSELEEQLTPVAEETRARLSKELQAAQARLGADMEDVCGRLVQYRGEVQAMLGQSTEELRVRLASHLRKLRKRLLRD
UniProt P02649, 19-317: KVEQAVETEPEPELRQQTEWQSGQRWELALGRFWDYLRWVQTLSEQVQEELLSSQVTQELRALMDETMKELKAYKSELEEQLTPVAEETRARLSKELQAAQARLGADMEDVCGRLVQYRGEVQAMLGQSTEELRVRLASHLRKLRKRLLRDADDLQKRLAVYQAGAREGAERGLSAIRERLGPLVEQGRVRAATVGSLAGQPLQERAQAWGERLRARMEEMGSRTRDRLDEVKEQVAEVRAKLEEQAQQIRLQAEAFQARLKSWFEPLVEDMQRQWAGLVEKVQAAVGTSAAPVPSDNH

How the values were obtained:
[1] = biological target: nApoE4(1-151), amino-terminal fragment of apoE4 (UniProt P02649); experiment: EMSA; details: EMSA: 1x binding buffer (Thermo 20148), 2.5% glycerol, 5 mM MgCl2, 50 ng/µl poly(dI-dC), 0.05% NP-40, 20 µl, room temperature 20 min, 5% TBE gel, 0.5x TBE, recombinant protein, residues 19-169, label: 5' biotin
[2] = biological target: full-length apoE4 (UniProt P02649); experiment: EMSA; details: 5 mM MgCl2, poly(dI-dC), 3.6 µg protein per 20 µl in Methods (legend: 25 µg/ml), 20 fmol DNA; EMSA: 1x binding buffer (Thermo 20148), 2.5% glycerol, 5 mM MgCl2, 50 ng/µl poly(dI-dC), 0.05% NP-40, 20 µl, room temperature 20 min; 5% TBE gel, 0.5x TBE; recombinant protein; label: 5' biotin

ATGCTTGTGTGTCCCCAACTTTCCAAATCCCCGCCCCCGCGATGGAGAAGAAACCGAGACAGAAGGTGCAGGGCCCACTACCGCTTCCTCCAGATGAGCTCATGGGTTTCTCCACCAAGGAAGTTTTCCGCTGGTTGAATGATTCTTTCCCCGCCCTCCTCTCGCCCCAGGGACATATAAAGGCAGTTGTTGGCACACCA (double strand)
binding result ([1]; 5 mM MgCl2, poly(dI-dC), 3.6 µg protein per 20 µl in Methods (legend: 25 µg/ml), 20 fmol DNA): binds
binding result ([1]; fragment preincubated with anti-His antibody, shift somewhat attenuated but still evident): binds more weakly
binding result [2]: no binding
